This note sets out measurements from PubChem BioAssay AID188 (DTP/NCI, 2004).

This assay concerns CD2F1 mice, nontumored, toxicity/survival. As to the kind of experiment: NCI In Vivo Anticancer Drug Screen. Data for tumor model Nontumored Animals (Toxicity Test) in CD2F1 (CDF1) mice.
[1] abbreviates: dose: 1.0 mg/kg/injection, schedule: Q01DX001 (ip), vehicle: water.
[2] abbreviates: dose: 10.0 mg/kg/injection, schedule: Q01DX001 (ip), vehicle: water.
The mark [3] stands for this setting: dose: 100.0 mg/kg/injection, schedule: Q01DX001 (ip), vehicle: water.
Setting [4] is: dose: 8.4 mg/kg/injection, schedule: Q04DX003 (ip), vehicle: saline with Tween-80.
[5] abbreviates: dose: 12.6 mg/kg/injection, schedule: Q04DX003 (ip), vehicle: saline with Tween-80.
Setting [6] is: dose: 18.9 mg/kg/injection, schedule: Q04DX003 (ip), vehicle: saline with Tween-80.
The mark [7] stands for this setting: dose: 28.4 mg/kg/injection, schedule: Q04DX003 (ip), vehicle: saline with Tween-80.
Setting [8] is: dose: 42.6 mg/kg/injection, schedule: Q04DX003 (ip), vehicle: saline with Tween-80.
The mark [9] stands for this setting: dose: 64.0 mg/kg/injection, schedule: Q04DX003 (ip), vehicle: saline with Tween-80.
[10] abbreviates: dose: 96.0 mg/kg/injection, schedule: Q04DX003 (ip), vehicle: saline with Tween-80.
The mark [11] stands for this setting: dose: 144.0 mg/kg/injection, schedule: Q04DX003 (ip), vehicle: saline with Tween-80.

The structures appear in SMILES notation. Shown are survivors of the treated group in tumour-free mice. Counts of survivors are from the toxicity check (mostly the fifth day) where no day follows; animals may have died later. Schedule codes are those of the source, read here as Q, the interval in days (D) or hours (H), X, the number of doses. Counts like (3×) count equal records among those shown. Some entries hold several experiments; the values are given in rising order.

As for `COCN(COC)c1nc(CCC(Br)(Br)Br)nc(N(COC)COC)n1`, the survivor count was 2 of 2 under setting [1], 2 of 2 under setting [2] and 2 of 2 under setting [3].

For `Cc1ccc(N=NN(C)C)cc1`, the survivor count is listed as 10 of 10 (dose: 59.0 mg/kg/injection, schedule: Q01DX009 (ip), vehicle: Klucel (hydroxypropylcellulose) (HPC)); 9 of 10 (dose: 89.0 mg/kg/injection, schedule: Q01DX009 (ip), vehicle: Klucel (hydroxypropylcellulose) (HPC)); 5 of 10 (dose: 133.0 mg/kg/injection, schedule: Q01DX009 (ip), vehicle: Klucel (hydroxypropylcellulose) (HPC)); 0 of 10 (dose: 200.0 mg/kg/injection, schedule: Q01DX009 (ip), vehicle: Klucel (hydroxypropylcellulose) (HPC)); 0 of 10 (dose: 300.0 mg/kg/injection, schedule: Q01DX009 (ip), vehicle: Klucel (hydroxypropylcellulose) (HPC)).

Turning to `CCOC(=O)C(CC(C)C)NC(=O)C(Cc1ccc(N(CCCl)CCCl)cc1)NC(C)=O` (centres undefined), the survivor count runs as follows: (dose: 8.0 mg/kg/injection, schedule: Q04DX003 (ip), vehicle: saline with Tween-80) 8 of 8; under setting [4], 8 of 8; under setting [5], 8 of 8; (dose: 16.0 mg/kg/injection, schedule: Q04DX003 (ip), vehicle: saline with Tween-80) 8 of 8; under setting [6], 8 of 8; under setting [7], 8 of 8. Also, the survivor count (dose: 32.0 mg/kg/injection, schedule: Q04DX003 (ip), vehicle: saline with Tween-80) was 8 of 8; the survivor count under setting [8] was 8 of 8; the survivor count under setting [9] is given as 8 of 8; the survivor count under setting [10] is on record as 8 of 8; the survivor count (dose: 128.0 mg/kg/injection, schedule: Q04DX003 (ip), vehicle: saline with Tween-80) is 8 of 8; the survivor count under setting [11] was 8 of 8. The survivor count (dose: 256.0 mg/kg/injection, schedule: Q04DX003 (ip), vehicle: saline with Tween-80) is 8 of 8.

Consider `O=NN(CCCl)C(=O)NCCCl`, for which the survivor count reads like this: (dose: 5.0 mg/kg/injection, schedule: Q04DX003 (ip), vehicle: saline + alcohol) 4 of 4; (dose: 7.5 mg/kg/injection, schedule: Q01DX001 (ip), vehicle: saline + alcohol) 8 of 8; (dose: 8.0 mg/kg/injection, schedule: Q01DX001 (ip), vehicle: saline + alcohol) 4 of 4; (dose: 10.0 mg/kg/injection, schedule: Q04DX003 (ip), vehicle: saline + alcohol) 4 of 4; (dose: 15.0 mg/kg/injection, schedule: Q01DX001 (ip), vehicle: saline + alcohol) 8 of 8; (dose: 16.0 mg/kg/injection, schedule: Q01DX001 (ip), vehicle: saline + alcohol) 4 of 4. Further, the survivor count is 4 of 4 (dose: 17.0 mg/kg/injection, schedule: Q01DX001 (ip), vehicle: saline + alcohol); 10 of 10 (2×) (dose: 20.0 mg/kg/injection, schedule: Q01DX001 (ip), vehicle: saline + alcohol); 4 of 4 (dose: 20.0 mg/kg/injection, schedule: Q04DX003 (ip), vehicle: saline + alcohol); 4 of 4 (dose: 29.0 mg/kg/injection, schedule: Q01DX001 (ip), vehicle: saline + alcohol); 10 of 10 (2×), 8 of 8, 9 of 9 (dose: 30.0 mg/kg/injection, schedule: Q01DX001 (ip), vehicle: saline + alcohol); 4 of 4 (dose: 32.0 mg/kg/injection, schedule: Q01DX001 (ip), vehicle: saline + alcohol). The survivor count runs as follows: (dose: 40.0 mg/kg/injection, schedule: Q01DX001 (ip), vehicle: saline + alcohol) 10 of 10 and 9 of 9; (dose: 40.0 mg/kg/injection, schedule: Q04DX003 (ip), vehicle: saline + alcohol) 4 of 4; (dose: 48.0 mg/kg/injection, schedule: Q01DX001 (ip), vehicle: saline + alcohol) 4 of 4; (dose: 60.0 mg/kg/injection, schedule: Q01DX001 (ip), vehicle: saline + alcohol) 8 of 8; (dose: 64.0 mg/kg/injection, schedule: Q01DX001 (ip), vehicle: saline + alcohol) 4 of 4; (dose: 80.0 mg/kg/injection, schedule: Q01DX001 (ip), vehicle: saline + alcohol) 4 of 4.

For `CCNc1ncc2ccccc2c1-c1ccc(NCCN(CCCl)CCCl)cc1`, the survivor count was 2 of 2 under setting [1], 2 of 2 under setting [2] and 2 of 2 under setting [3].

`CC(=O)NC(Cc1ccc(N(CCCl)CCCl)cc1)C(=O)NC(CC(C)C)C(=O)O` (centres undefined): the survivor count under setting [4] is 8 of 8; the survivor count under setting [5] was 8 of 8; the survivor count under setting [6] is listed as 8 of 8; the survivor count under setting [7] is listed as 8 of 8; the survivor count under setting [8] is 8 of 8; the survivor count under setting [9] is on record as 8 of 8. In addition, the survivor count runs as follows: under setting [10], 8 of 8; under setting [11], 8 of 8.

With `O=c1cnn(C2OC(CO)C(O)C2O)c(=O)[nH]1` (centres undefined), the survivor count is, setting by setting: (dose: 62.5 mg/kg/injection, schedule: Q03HX016 (ip), vehicle: water) 10 of 10; (dose: 125.0 mg/kg/injection, schedule: Q03HX016 (ip), vehicle: water) 10 of 10; (dose: 250.0 mg/kg/injection, schedule: Q03HX016 (ip), vehicle: water) 10 of 10; (dose: 500.0 mg/kg/injection, schedule: Q03HX016 (ip), vehicle: water) 9 of 10 and 10 of 10; (dose: 1000.0 mg/kg/injection, schedule: Q03HX016 (ip), vehicle: water) 8 of 10 and 9 of 10; (dose: 2000.0 mg/kg/injection, schedule: Q03HX016 (ip), vehicle: water) 8 of 10 and 10 of 10.

On to `Nc1nc2c(c(=O)[nH]1)N=C(CCc1ccccc1)CO2`, for which the survivor count (dose: 1.0 mg/kg/injection, schedule: Q01DX001 (ip), vehicle: other) is recorded as 2 of 2; the survivor count (dose: 10.0 mg/kg/injection, schedule: Q01DX001 (ip), vehicle: other) is 2 of 2; the survivor count (dose: 100.0 mg/kg/injection, schedule: Q01DX001 (ip), vehicle: other) is given as 2 of 2.
